{
  "source": "patent US8591947B2",
  "about": "“Dual controlled release dosage form” (Osmotica Kereskedelmi és Szolgáltató KFT, priority 2001, dated 2013)",
  "origin": "cited, not measured here",
  "data": [
    {"smiles": "CN1C(=O)C(O)N=C(c2ccccc2)c2cc(Cl)ccc21", "note": "(stereo not shown) [temazepan]", "values": [
      {"measurement": "Solubility of component in water (U.S.P. term)", "value": "very slightly soluble"}
    ]}
  ]
}
